Laboratory results from the supplement of paper PMC10849652.
The list shows a part of the results.

Sequences of proteins named here, by UniProt entry; tags and fusion partners are left off. A change or cut given only in a name is not applied to a line headed by its entry.
UniProt Q9NRN9: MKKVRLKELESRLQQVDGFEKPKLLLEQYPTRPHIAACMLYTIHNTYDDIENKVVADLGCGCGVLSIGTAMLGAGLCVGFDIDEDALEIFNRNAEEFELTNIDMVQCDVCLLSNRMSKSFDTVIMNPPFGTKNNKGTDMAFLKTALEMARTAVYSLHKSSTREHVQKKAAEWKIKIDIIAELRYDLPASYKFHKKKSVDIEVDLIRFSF
UniProt P23368: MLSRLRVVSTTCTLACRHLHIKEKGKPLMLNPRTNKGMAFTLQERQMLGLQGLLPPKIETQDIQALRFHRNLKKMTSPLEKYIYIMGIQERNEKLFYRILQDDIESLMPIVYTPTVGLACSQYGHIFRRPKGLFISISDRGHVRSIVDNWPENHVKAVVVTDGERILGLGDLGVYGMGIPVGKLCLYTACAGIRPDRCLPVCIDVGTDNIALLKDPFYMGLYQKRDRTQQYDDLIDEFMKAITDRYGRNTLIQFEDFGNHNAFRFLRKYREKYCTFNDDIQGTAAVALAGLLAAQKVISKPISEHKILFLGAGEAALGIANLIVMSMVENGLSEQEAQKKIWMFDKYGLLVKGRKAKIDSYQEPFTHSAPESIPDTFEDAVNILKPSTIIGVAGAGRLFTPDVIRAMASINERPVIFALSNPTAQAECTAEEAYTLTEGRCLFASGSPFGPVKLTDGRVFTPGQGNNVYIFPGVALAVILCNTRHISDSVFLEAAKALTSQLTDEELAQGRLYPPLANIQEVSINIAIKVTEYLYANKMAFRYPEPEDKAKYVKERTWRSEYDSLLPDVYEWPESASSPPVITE
UniProt Q9ULC4: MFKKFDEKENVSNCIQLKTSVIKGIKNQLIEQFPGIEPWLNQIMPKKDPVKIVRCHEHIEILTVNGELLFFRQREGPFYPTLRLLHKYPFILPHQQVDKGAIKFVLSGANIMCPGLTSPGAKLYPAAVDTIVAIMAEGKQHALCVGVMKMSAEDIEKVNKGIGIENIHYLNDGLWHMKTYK
UniProt Q9UHV7: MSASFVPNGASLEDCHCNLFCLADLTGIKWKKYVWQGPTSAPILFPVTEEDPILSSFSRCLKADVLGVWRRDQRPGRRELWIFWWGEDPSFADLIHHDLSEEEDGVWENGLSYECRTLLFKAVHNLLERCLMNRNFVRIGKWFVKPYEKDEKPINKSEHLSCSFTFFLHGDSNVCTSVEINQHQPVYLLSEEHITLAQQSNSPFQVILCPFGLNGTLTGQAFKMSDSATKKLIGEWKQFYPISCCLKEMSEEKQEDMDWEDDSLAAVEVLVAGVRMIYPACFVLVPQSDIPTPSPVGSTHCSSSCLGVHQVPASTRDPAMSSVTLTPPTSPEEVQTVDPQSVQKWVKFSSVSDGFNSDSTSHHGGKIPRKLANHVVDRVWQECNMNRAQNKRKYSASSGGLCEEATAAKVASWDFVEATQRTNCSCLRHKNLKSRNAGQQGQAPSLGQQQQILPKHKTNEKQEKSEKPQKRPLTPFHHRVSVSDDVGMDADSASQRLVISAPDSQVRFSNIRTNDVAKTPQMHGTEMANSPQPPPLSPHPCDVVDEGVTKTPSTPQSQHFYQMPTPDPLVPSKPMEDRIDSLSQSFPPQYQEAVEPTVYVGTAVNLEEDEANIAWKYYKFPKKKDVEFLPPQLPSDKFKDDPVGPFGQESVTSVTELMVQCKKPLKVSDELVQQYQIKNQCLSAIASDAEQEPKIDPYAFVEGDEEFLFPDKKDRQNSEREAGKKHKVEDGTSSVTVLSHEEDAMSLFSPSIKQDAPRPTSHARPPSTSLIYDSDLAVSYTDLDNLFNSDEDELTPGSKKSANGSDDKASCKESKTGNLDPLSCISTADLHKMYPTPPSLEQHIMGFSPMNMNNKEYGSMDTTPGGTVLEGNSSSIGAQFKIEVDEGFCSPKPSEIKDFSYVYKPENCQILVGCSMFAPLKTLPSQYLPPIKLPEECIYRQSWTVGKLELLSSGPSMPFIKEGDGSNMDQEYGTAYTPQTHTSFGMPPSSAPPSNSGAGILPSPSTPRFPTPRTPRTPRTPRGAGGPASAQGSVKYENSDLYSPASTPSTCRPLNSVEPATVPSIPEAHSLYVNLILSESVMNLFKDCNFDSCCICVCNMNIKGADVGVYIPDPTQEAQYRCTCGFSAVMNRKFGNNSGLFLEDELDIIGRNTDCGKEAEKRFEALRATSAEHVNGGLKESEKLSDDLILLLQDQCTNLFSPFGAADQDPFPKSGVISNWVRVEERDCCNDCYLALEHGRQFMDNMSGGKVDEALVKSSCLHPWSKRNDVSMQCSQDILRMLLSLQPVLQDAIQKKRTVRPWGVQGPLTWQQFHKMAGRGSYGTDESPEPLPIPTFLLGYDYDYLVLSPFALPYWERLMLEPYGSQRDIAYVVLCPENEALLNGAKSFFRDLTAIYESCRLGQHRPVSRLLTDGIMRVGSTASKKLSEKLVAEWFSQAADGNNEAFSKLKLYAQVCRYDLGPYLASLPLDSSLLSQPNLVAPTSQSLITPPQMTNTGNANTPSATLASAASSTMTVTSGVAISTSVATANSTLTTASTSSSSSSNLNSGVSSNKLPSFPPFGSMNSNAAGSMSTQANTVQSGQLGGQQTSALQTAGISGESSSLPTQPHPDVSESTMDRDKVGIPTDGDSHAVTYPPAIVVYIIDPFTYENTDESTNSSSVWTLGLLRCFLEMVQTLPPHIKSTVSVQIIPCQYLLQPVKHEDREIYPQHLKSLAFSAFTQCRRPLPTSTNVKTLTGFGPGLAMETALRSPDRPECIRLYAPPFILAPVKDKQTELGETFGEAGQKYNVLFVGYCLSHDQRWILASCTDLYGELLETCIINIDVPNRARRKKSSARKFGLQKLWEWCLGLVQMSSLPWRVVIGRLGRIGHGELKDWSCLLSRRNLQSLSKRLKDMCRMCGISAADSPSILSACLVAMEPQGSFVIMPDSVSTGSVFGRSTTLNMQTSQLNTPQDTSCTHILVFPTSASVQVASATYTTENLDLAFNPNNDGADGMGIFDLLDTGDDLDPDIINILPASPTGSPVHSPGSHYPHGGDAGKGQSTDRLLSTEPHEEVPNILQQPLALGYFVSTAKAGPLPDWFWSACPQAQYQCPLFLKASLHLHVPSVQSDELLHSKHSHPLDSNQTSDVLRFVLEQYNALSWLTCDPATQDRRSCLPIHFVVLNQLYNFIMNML
UniProt P40925: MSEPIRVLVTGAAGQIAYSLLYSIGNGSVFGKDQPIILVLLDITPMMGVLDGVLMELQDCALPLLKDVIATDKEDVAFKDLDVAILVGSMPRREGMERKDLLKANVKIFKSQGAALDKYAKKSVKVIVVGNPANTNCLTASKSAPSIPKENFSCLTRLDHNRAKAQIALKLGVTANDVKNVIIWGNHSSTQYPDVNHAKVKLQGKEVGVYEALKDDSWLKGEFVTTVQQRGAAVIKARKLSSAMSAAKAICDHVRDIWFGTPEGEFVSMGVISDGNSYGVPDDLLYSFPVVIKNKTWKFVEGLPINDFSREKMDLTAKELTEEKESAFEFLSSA
UniProt Q02078: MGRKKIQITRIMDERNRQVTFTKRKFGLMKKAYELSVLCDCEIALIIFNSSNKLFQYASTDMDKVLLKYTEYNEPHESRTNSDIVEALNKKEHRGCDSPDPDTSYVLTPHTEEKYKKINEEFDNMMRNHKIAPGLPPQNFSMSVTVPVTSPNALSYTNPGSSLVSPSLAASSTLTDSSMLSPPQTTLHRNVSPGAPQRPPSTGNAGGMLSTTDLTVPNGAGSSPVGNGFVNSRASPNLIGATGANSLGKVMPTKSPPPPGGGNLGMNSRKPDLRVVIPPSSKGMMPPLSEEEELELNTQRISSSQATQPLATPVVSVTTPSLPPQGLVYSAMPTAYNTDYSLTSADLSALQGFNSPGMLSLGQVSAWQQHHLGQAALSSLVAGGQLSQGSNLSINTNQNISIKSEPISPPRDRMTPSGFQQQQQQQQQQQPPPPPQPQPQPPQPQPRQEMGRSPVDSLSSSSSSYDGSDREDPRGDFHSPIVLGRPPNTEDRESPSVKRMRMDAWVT
UniProt Q71F56: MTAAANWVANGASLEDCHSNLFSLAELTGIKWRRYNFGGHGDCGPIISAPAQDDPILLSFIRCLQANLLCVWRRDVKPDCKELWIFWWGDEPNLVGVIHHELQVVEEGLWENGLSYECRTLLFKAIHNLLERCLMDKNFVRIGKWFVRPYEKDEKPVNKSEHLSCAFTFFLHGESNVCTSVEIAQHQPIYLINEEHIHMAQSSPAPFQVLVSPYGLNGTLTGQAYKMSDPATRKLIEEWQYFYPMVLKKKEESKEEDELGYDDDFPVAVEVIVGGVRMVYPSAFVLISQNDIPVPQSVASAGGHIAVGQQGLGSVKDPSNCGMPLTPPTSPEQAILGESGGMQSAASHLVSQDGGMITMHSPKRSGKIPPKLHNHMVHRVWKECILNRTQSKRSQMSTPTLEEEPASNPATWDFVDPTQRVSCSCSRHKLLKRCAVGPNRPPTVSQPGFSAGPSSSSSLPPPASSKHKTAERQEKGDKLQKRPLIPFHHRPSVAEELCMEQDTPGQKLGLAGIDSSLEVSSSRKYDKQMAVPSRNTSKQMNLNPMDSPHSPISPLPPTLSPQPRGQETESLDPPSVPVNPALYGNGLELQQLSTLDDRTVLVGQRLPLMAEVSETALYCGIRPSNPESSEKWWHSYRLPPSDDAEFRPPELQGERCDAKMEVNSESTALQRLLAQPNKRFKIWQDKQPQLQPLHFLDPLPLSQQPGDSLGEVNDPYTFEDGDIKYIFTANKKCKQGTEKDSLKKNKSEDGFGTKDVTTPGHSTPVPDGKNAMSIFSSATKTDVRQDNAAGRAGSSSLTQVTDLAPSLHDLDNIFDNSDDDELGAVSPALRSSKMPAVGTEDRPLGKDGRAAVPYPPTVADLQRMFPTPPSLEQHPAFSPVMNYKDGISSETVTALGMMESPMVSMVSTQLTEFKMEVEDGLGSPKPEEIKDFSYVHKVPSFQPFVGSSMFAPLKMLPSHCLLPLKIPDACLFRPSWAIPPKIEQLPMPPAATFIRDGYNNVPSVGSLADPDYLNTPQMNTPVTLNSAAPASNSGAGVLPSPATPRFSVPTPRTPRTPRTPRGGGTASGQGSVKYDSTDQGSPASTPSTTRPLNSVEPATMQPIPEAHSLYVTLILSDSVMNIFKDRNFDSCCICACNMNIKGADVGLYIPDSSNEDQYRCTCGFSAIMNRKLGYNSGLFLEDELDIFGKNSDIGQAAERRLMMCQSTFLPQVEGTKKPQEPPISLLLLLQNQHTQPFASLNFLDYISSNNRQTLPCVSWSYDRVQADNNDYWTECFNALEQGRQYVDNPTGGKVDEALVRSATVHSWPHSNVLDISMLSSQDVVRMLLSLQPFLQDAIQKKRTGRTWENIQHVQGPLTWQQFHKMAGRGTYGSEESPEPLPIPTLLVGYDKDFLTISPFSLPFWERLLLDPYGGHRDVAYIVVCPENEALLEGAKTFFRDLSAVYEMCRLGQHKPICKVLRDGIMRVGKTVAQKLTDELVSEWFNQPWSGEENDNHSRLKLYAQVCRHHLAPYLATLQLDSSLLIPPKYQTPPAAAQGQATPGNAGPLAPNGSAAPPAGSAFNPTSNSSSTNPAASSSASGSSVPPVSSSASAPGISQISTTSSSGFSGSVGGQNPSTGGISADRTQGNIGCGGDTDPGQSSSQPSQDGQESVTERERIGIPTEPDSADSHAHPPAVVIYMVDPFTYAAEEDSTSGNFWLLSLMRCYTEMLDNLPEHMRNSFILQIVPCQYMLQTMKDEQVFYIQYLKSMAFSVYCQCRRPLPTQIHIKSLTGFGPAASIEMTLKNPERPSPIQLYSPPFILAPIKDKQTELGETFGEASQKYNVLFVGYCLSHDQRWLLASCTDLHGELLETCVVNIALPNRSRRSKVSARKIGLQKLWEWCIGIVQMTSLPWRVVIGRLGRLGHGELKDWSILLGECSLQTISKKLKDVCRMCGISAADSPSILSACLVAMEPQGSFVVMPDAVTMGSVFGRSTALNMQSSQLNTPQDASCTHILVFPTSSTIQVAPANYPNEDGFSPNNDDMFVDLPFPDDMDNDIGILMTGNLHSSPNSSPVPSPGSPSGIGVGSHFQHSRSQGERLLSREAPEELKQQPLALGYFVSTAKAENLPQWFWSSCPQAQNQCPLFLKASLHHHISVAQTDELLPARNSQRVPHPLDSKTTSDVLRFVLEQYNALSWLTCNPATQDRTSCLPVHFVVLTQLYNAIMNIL
UniProt Q9NS73: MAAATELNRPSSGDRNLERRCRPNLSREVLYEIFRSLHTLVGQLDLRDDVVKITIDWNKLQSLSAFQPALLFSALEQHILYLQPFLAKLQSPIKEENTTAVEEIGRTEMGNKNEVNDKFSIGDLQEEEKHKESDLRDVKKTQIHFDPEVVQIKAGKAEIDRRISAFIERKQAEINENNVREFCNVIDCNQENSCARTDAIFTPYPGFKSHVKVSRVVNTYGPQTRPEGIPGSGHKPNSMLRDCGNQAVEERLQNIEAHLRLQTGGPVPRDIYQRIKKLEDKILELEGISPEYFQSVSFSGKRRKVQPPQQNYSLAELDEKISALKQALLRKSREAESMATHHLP

Experiments:
Assay in all cases: log2 fold change, soluble protein after heating vs DMSO (PISA); higher = thermal stabilisation; K562 lysate, 10 uM; active = over 0.2 and 3.5 SD of the protein, either way, in both replicates (recomputed)
[1] = compound: CCCS(=O)(=O)Nc1ccc(F)c(C(=O)c2c[nH]c3ncc(-c4ccc(Cl)cc4)cc23)c1F [vemurafenib]
Procedure, shortened: (§1)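 K562 pellets were dounce-homogenised in PBS pH 7.4 containing 1 mM MgCl2, and the crude extract, at 1 mg/mL protein, was exposed to 10 μM compound for 30 min. Aliquots were heated for 3 min across 48°C-58°C, pooled, brought to 0.5% NP-40 at 4°C and spun at 21,000xg for 90 min, with the supernatant taken as soluble protein. TMTpro 16plex LC-MS/MS with equalised channel sums quantified that protein. Values are log-two fold changes in thermal stability relative to solvent controls, taken from duplicates.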

[2] = compound: CCCS(=O)(=O)Nc1ccc(F)c(C(=O)c2c[nH]c3ncc(Cl)cc23)c1F
Procedure, shortened: as §1

[3] = compound: CCN(CCCOc1ccc2c(Nc3cc(CC(=O)Nc4cccc(F)c4)[nH]n3)ncnc2c1)CCOP(=O)(O)O [barasertib]
Procedure, shortened: as §1

[4] = compound: CC[C@@H]1C(=O)N(C)c2cnc(Nc3ccc(C(=O)NC4CCN(C)CC4)cc3OC)nc2N1C1CCCC1
Procedure, shortened: as §1

[5] = compound: CC[C@@H]1C(=O)N(C)c2cnc(Nc3ccc(C(=O)N[C@H]4CC[C@H](N5CCN(CC6CC6)CC5)CC4)cc3OC)nc2N1C(C)C [volasertib]
Procedure, shortened: as §1

[6] = compound: CCn1c(C(=O)N(C2CC2)C2CC2)cc2c3c(ncn3C)c(Nc3cc(C)n(C)n3)nc21
Procedure, shortened: as §1

[7] = compound: CCn1cc(-c2ccnc3[nH]c(-c4cccc(CN(C)C)c4)cc23)c(-c2ccc(NC(=O)N(C)C)cc2)n1
Procedure, shortened: as §1

[8] = compound: CN1CCC(CNc2ccc3ncc(-c4cccc(OC(F)(F)F)c4)n3n2)CC1
Procedure, shortened: as §1

[9] = compound: CN1CCN(CCOc2cc(OC3CCOCC3)c3c(Nc4c(Cl)ccc5c4OCO5)ncnc3c2)CC1 [saracatinib]
Procedure, shortened: as §1

[10] = compound: CN1CCN(c2nc(C3=C(c4c[nH]c5ccccc45)C(=O)NC3=O)c3ccccc3n2)CC1 [sotrastaurin]
Procedure, shortened: as §1

[11] = compound: CN1CC[C@H](c2c(O)cc(O)c3c(=O)cc(-c4ccccc4Cl)oc23)[C@H](O)C1 [alvocidib]
Procedure, shortened: as §1

[12] = compound: CN1CCc2c(c3ccccc3n2Cc2ccc(C(=O)NO)cc2)C1 [Tubastatin A]
Procedure, shortened: as §1

[13] = compound: CNC(=O)C1=CC=CC=C1NC2=NC(=NC=C2Cl)NC3=C(C=C(C=C3)N4CCOCC4)OC
Procedure, shortened: as §1

[14] = compound: CNC(=O)c1ccc(Nc2ncc(C(F)(F)F)c(NCc3nccnc3N(C)S(C)(=O)=O)n2)cc1 [defactinib]
Procedure, shortened: as §1

[15] = compound: CNc1nc(-c2ccc3c(N)n[nH]c3c2)cc(N2C[C@@H](C(=O)NC3CCCCC3)CC[C@H]2C)n1
Procedure, shortened: as §1

[16] = compound: COC(=O)N[C@@H](C)CNc1nccc(-c2cn(C(C)C)nc2-c2cc(Cl)cc(NS(C)(=O)=O)c2F)n1 [encorafenib]
Procedure, shortened: as §1

[17] = compound: COC(=O)[C@H](CCSC)NC(=O)C1=C(C=C(C=C1)NC[C@H](CS)N)C2=CC=CC=C2
Procedure, shortened: as §1

[18] = compound: COc1cc(Nc2ncc3c(n2)-c2ccc(Cl)cc2C(c2c(F)cccc2OC)=NC3)ccc1C(=O)O [alisertib]
Procedure, shortened: as §1

[19] = compound: COc1cc2nc(-c3cc(F)ccc3O)nc(N[C@@H]3CNC[C@H]3C(C)(C)O)c2cc1OC
Procedure, shortened: as §1

[20] = compound: COc1cc2ncnc(Nc3ccc(F)c(Cl)c3)c2cc1OCCCN1CCOCC1 [gefitinib]
Procedure, shortened: as §1

Measured: log2 fold change

METTL14 (UniProt Q9HCE5)
inactive: [1] -0.035 | [2] -0.004 | [3] -0.048 | [4] 0.018 | [5] -0.016 | [6] 0.038 | [7] 0.21 | [8] -0.036 | [9] 0.024 | [10] 0.055 | [11] 0.022 | [12] 0.009 | [13] 0.058 | [14] -0.004 | [15] 0.023 | [16] 0.026 | [17] -0.05 | [18] -0.021 | [19] 0.005 | [20] -0.002

MCM2 (UniProt P49736)
inactive: [1] 0.021 | [2] 0.014 | [3] 0.006 | [4] -0.04 | [5] -0.051 | [6] -0.006 | [7] -0.018 | [8] -0.016 | [9] 0.01 | [10] 0.013 | [11] -0.01 | [12] -0.04 | [13] 0.026 | [14] 0.018 | [15] 0.001 | [16] -0.006 | [17] 0.05 | [18] 0.001 | [19] 0.004 | [20] 0

METTL5 (UniProt Q9NRN9)
inactive: [1] -0.008 | [2] -0.019 | [3] -0.01 | [4] 0.024 | [5] 0.023 | [6] 0.001 | [7] 0.218 | [8] -0.01 | [9] -0.046 | [10] 0.005 | [11] 0.004 | [12] 0.046 | [13] -0.02 | [14] -0.019 | [15] -0.01 | [16] -0.033 | [17] 0.001 | [18] 0.01 | [19] 0.011 | [20] -0.018

ME2 (UniProt P23368)
inactive: [1] -0.011 | [2] 0.006 | [3] 0.004 | [4] 0.011 | [5] 0.039 | [6] 0.024 | [7] -0.001 | [8] 0.067 | [9] -0.031 | [10] 0.008 | [11] -0.006 | [12] 0.021 | [13] 0.001 | [14] 0.02 | [15] 0.062 | [16] -0.014 | [17] 0 | [18] 0.005 | [19] 0.012 | [20] -0.004

MED15 (UniProt Q96RN5)
inactive: [1] -0.04 | [2] -0.006 | [3] 0.002 | [4] -0.007 | [5] -0.004 | [6] 0.063 | [7] 0.08 | [8] 0.001 | [9] 0.04 | [10] -0.004 | [11] 0.009 | [12] -0.033 | [13] 0.017 | [14] 0.03 | [15] -0.004 | [16] -0.003 | [17] -0.002 | [18] 0.009 | [19] -0.05 | [20] 0

MCTS1 isoform 3 (UniProt Q9ULC4)
inactive: [1] 0.022 | [2] 0.014 | [3] -0.064 | [4] -0.006 | [5] 0.009 | [6] -0.014 | [7] 0.209 | [8] -0.001 | [9] -0.01 | [10] -0.012 | [11] 0.012 | [12] 0.051 | [13] -0.012 | [14] -0.004 | [15] -0.002 | [16] -0.021 | [17] -0.04 | [18] 0 | [19] -0.03 | [20] -0.005

MED14 (UniProt O60244)
inactive: [1] -0.078 | [2] 0.003 | [3] 0.015 | [4] -0.084 | [5] -0.023 | [6] 0.008 | [7] -0.008 | [8] 0.009 | [9] -0.001 | [10] 0.008 | [11] -0.017 | [12] -0.068 | [13] 0.051 | [14] -0.008 | [15] 0.015 | [16] 0.012 | [17] 0.003 | [18] -0.028 | [19] -0.018 | [20] 0.001

MED13 (UniProt Q9UHV7)
inactive: [1] 0.103 | [2] 0.031 | [3] 0.042 | [4] -0.003 | [5] -0.059 | [6] -0.012 | [7] -0.045 | [8] 0.012 | [9] 0.03 | [10] -0.028 | [11] -0.003 | [12] -0.05 | [13] -0.015 | [14] -0.019 | [15] -0.009 | [16] 0.011 | [17] -0.03 | [18] -0.01 | [19] 0.003 | [20] 0.045

MDH1 isoform 3 (UniProt P40925)
inactive: [1] -0.01 | [2] -0.024 | [3] -0.015 | [4] -0.005 | [5] 0.032 | [6] -0.022 | [7] 0.009 | [8] -0.014 | [9] -0.044 | [10] -0.047 | [11] 0.011 | [12] 0.067 | [13] 0.012 | [14] -0.071 | [15] 0.016 | [16] -0.057 | [17] 0.006 | [18] 0.017 | [19] 0.008 | [20] -0.013

MAZ isoform 2 (UniProt P56270)
inactive: [1] -0.038 | [2] 0.051 | [3] -0.021 | [4] 0.051 | [5] 0.055 | [6] 0.034 | [7] -0.007 | [8] 0.092 | [9] -0.062 | [10] -0.039 | [11] -0.038 | [12] 0.019 | [13] 0.094 | [14] -0.028 | [15] 0.12 | [16] 0.002 | [17] 0.003 | [18] 0.031 | [19] 0.024 | [20] -0.014

METTL7A (UniProt Q9H8H3)
inactive: [1] -0.08 | [2] 0.056 | [3] -0.123 | [4] -0.022 | [5] 0.226 | [6] -0.018 | [7] 0.014 | [8] 0.081 | [9] -0.028 | [10] -0.028 | [11] -0.079 | [12] 0.014 | [13] 0.003 | [14] 0.011 | [15] 0.041 | [16] -0.041 | [17] 0.151 | [18] -0.036 | [19] -0.01 | [20] -0.046

MEF2A (UniProt Q02078)
inactive: [1] -0.017 | [2] 0.001 | [3] -0.008 | [4] -0.083 | [5] 0.045 | [6] 0.088 | [7] -0.17 | [8] 0.038 | [9] 0.041 | [10] -0.001 | [11] -0.098 | [12] -0.045 | [13] -0.022 | [14] -0.014 | [15] -0.011 | [16] 0.071 | [17] 0.146 | [18] 0.088 | [19] 0.06 | [20] 0.022

Two entries picked at random from those above, as already listed:
MDH1 isoform 3 (UniProt P40925)
inactive: [1] -0.01 | [2] -0.024 | [3] -0.015 | [4] -0.005 | [5] 0.032 | [6] -0.022 | [7] 0.009 | [8] -0.014 | [9] -0.044 | [10] -0.047 | [11] 0.011 | [12] 0.067 | [13] 0.012 | [14] -0.071 | [15] 0.016 | [16] -0.057 | [17] 0.006 | [18] 0.017 | [19] 0.008 | [20] -0.013

ME2 (UniProt P23368)
inactive: [1] -0.011 | [2] 0.006 | [3] 0.004 | [4] 0.011 | [5] 0.039 | [6] 0.024 | [7] -0.001 | [8] 0.067 | [9] -0.031 | [10] 0.008 | [11] -0.006 | [12] 0.021 | [13] 0.001 | [14] 0.02 | [15] 0.062 | [16] -0.014 | [17] 0 | [18] 0.005 | [19] 0.012 | [20] -0.004

(cont.)

MED13L (UniProt Q71F56)
inactive: [1] -0.043 | [2] -0.012 | [3] 0.028 | [4] 0.01 | [5] -0.058 | [6] 0.038 | [7] -0.023 | [8] 0.064 | [9] -0.037 | [10] -0.018 | [11] 0.042 | [12] -0.069 | [13] 0.016 | [14] -0.011 | [15] -0.004 | [16] 0.02 | [17] 0.021 | [18] -0.084 | [19] -0.005 | [20] 0.01

MBIP (UniProt Q9NS73)
inactive: [1] 0.164 | [2] -0.018 | [3] -0.141 | [4] 0.007 | [5] 0.402 | [6] 0.045 | [7] -0.062 | [8] 0.017 | [9] 0.014 | [10] 0.063 | [11] -0.02 | [12] -0.034 | [13] -0.062 | [14] -0.048 | [15] -0.042 | [16] 0.006 | [17] 0.13 | [18] 0.155 | [19] -0.065 | [20] -0.1

MCM4 (UniProt P33991)
inactive: [1] 0.01 | [2] 0.022 | [3] 0.065 | [4] -0.079 | [5] -0.074 | [6] 0.032 | [7] 0.018 | [8] -0.048 | [9] -0.018 | [10] 0.021 | [11] 0.007 | [12] -0.032 | [13] -0.054 | [14] -0.013 | [15] -0.049 | [16] -0.018 | [17] 0.072 | [18] -0.01 | [19] 0.008 | [20] -0.03

MFGE8 (UniProt Q08431)
inactive: [1] -0.05 | [2] -0.023 | [3] -0.004 | [4] 0.087 | [5] -0.061 | [6] -0.02 | [7] -0.147 | [8] 0.148 | [9] -0.028 | [10] 0.03 | [11] -0.084 | [12] 0.052 | [13] 0.033 | [14] -0.087 | [15] 0.028 | [16] 0.041 | [17] -0.085 | [18] 0.016 | [19] 0.116 | [20] -0.102
